From the supplement of paper PMC3334620
Whole data set: some 33,000 sequences, median “E-score (-0.5 to 0.5)” near -0.016, cut for the highest 2% near 0.3. The list shows a part of the results.

What follows are sequences tested against T1, Yer184c (UniProt P39961) (assay: PBM E-score (8-mer binding enrichment) (E-score (-0.5 to 0.5)); higher = stronger / more preferred TF binding). Conditions: protein concentration: 100 nM; construct: GST-full length.
T1 sequence: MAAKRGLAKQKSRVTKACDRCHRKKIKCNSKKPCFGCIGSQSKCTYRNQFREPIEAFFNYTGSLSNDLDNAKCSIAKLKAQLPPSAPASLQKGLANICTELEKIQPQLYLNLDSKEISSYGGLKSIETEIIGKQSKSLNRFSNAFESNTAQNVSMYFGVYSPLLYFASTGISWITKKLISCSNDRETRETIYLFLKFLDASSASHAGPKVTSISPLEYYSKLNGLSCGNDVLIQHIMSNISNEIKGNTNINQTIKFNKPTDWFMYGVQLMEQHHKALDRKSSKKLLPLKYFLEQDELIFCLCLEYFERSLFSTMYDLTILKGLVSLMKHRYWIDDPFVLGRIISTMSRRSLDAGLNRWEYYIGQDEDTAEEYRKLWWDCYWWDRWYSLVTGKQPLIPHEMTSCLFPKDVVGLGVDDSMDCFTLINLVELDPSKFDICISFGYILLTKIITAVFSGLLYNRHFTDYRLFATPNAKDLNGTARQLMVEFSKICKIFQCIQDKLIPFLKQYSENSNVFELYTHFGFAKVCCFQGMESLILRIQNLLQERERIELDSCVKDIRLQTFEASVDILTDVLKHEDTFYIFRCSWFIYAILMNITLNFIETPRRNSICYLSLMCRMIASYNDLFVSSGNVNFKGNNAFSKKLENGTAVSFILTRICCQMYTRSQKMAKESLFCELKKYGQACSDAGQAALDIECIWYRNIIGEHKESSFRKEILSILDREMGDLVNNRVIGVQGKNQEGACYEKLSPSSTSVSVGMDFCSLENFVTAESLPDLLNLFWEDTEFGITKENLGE
Experimental: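 Universal 'all 10-mer' protein binding microarrays (Agilent AMADID 015681) probed with GST-tagged S. cerevisiae TFs (full-length or DBD) made by in vitro transcription/translation (PURExpress), about 100-200 nM. Bound TF was detected with fluorescent anti-GST. Each ungapped 8-mer (which stands for itself and its reverse complement) is scored by the PBM enrichment score (E-score), a modified Wilcoxon-Mann-Whitney statistic from -0.5 to +0.5, computed with the Universal PBM Analysis Suite. Scale: above 0.35 generally sequence-specific binding.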

| Sequence | PBM E-score |
| --- | --- |
| GATTTACA | 0.194 |
| AGTTTTTG | 0.224 |
| GCACCGAC | 0.0749 |
| CACTACGA | 0.185 |
| GAAGCTGA | 0.21 |
| GGATTAGA | -0.117 |
| AGATAACG | 0.0284 |
| GGCAGGAC | -0.117 |
| GCCTCCCA | -0.3 |
| GAACGACA | 0.0411 |
| CACTGTAC | -0.31 |
| CATAATGC | -0.0707 |
| ACGTTGCT | -0.0994 |
| AATTAGCC | 0.113 |
| AGATTATG | -0.0137 |
| AGCGTGGG | -0.269 |
| CCATCCCC | -0.24 |
| ACATCATA | 0.123 |
| CACATGCG | -0.074 |
| CTCTTAGA | 0.0666 |
| AGAAAAAC | 0.154 |
| TCGTCACA | 0.00564 |
| CCGGTCCC | 0.0884 |
| ATTACGAG | -0.116 |
| GTGAGCCA | -0.175 |

| Sequence | PBM E-score |
| --- | --- |
| CAATGGAA | 0.154 |
| ATAAATAA | 0.279 |
| CCTCTTCA | -0.18 |
| ATAAGTAA | 0.0957 |
| CGGGATCC | 0.269 |
| CCGTGAAA | 0.2 |
| CTTTACTA | 0.177 |
| AACTTGCA | -0.133 |
| GCCCCTGA | -0.192 |
| ACGGTTTG | 0.147 |
| CCACTTTC | -0.212 |
| AATCACCA | 0.0641 |
| ACAGGCCC | -0.349 |
| AACTAAAT | -0.0404 |
| GTAACGAC | -0.0189 |
| CATTCTTC | -0.107 |
| TACCAAAA | 0.0716 |
| CACTAGCA | -0.313 |
| AGATACGA | 0.0973 |
| ATGGGCTG | -0.305 |
| CGAATGGC | 0.0702 |
| TCGGCCAA | 0.193 |
| CAGGGACG | -0.187 |
| CAGCCCAA | -0.0561 |
| GGCCACGA | -0.0979 |

| Sequence | PBM E-score |
| --- | --- |
| CCCACTGC | -0.227 |
| TCGTGCCA | -0.0537 |
| TAGCTCCA | -0.0638 |
| AGTGGCGG | -0.0491 |
| CGAACCGA | 0.328 |
| TCGCCCGA | -0.0544 |
| CGGATAGC | 0.238 |
| CCGTCAAA | 0.0576 |
| GATTTGAA | 0.163 |
| GAGAGCCC | -0.319 |
| ACAGTCTG | -0.15 |
| GAGCCAGA | -0.0585 |
| CTGACTGC | -0.268 |
| GTGGAGGA | -0.0625 |
| GACACGCC | -0.118 |
| GGAAATTA | 0.201 |
| AGCTGGTA | -0.148 |
| CTCAGTCA | -0.0672 |
| TACTCAGA | 0.142 |
| ACATCGAT | 0.0644 |
| ATTAGAGC | 0.0465 |
| ACTAAGGA | -0.0376 |
| GCCTGATA | -0.173 |
| AAAGGAAG | 0.106 |
| CTCGCGAA | -0.0706 |

| Sequence | PBM E-score |
| --- | --- |
| GTACCTCA | -0.0731 |
| CTAGGCAC | -0.14 |
| TACGATAA | 0.0543 |
| CAAATTTC | 0.175 |
| AACTCGCT | 0.0751 |
| AGCTCGCA | -0.0221 |
| GACCACTC | -0.0477 |
| ACATACCG | -0.0905 |
| AGCATCAT | -0.0505 |
| GCGAACGC | -0.0962 |
| CAGCTTGC | -0.0215 |
| CTAGCAGC | -0.0845 |
| CACTGTTC | -0.0254 |
| TAAGTTCA | 0.0634 |
| AGTTCGGG | 0.252 |
| GCATCGTA | -0.0659 |
| GCAGTCTA | -0.161 |
| ATCTGCAG | 0.086 |
| GAAATTAC | 0.209 |
| GCAGCTAA | -0.0221 |
| CGCAGTAA | -0.0204 |
| AAAAGTAC | 0.0767 |
| GGTTAGTA | 0.0879 |
| CCAGATTA | 0.0514 |
| ATGTTACA | 0.195 |

Reformatted with bars between the fields: part of the list above
Sequence | PBM E-score
CTTTACTA | 0.177
AACTTGCA | -0.133
GCCCCTGA | -0.192
ACGGTTTG | 0.147
CCACTTTC | -0.212
AATCACCA | 0.0641

(list continues)

| Sequence | PBM E-score |
| --- | --- |
| ACTAGTTC | 0.108 |
| ACCCCTTG | -0.291 |
| ATATACAG | 0.143 |
| TCAGCAAA | 0.158 |
| ATTTCCTA | 0.197 |
| AAGTTTCT | 0.0681 |
| ATCCGTCA | 0.056 |
| ACGGGCGG | -0.229 |
| GAGAGCGC | -0.218 |
| CGCGACCG | 0.104 |
| CAAGCCGG | 0.327 |
| TCGACTCA | -0.0125 |
| ACGCCTAT | -0.161 |
| AAGCTTTC | 0.289 |
| GTTGTTAA | 0.25 |
| CTTAGCAC | 0.115 |
| GCTATAAA | 0.0995 |
| GAATGATC | 0.129 |
| CGTTCGTA | 0.102 |
| ACGTACCG | -0.0455 |
| AGGTACCT | -0.273 |
| TATGGAGA | -0.0738 |
| CCTGAATC | -0.0172 |
| GCTAAGAA | 0.0162 |
| ACCATACA | -0.032 |

| Sequence | PBM E-score |
| --- | --- |
| CGTAAGAG | 0.0388 |
| AGCATCGG | 0.24 |
| CGTTAGCA | 0.0219 |
| GGTTTCCA | -0.134 |
| GACGAAAA | 0.3 |
| AGTTAGTA | 0.0559 |
| ACTGCTAC | -0.127 |
| AGCCGGCT | 0.36 |
| CTTAGCCC | -0.0355 |
| AGGATCTG | -0.228 |
| CAGAGCCA | -0.17 |
| ATCCTTAC | -0.0522 |
| ATAGATGA | 0.0459 |
| CGGGCAAA | 0.157 |
| AGGCTTTA | -0.154 |
| ACACGGAA | 0.295 |
| CAATATGG | -0.132 |
| AACCTACG | -0.0262 |
| GTTTTGGA | 0.134 |
| CTCGACAA | -0.0392 |
| ACCCGTGG | -0.169 |
| ATCGATAA | 0.0778 |
| AATACCCG | 0.104 |
| CTGGCAAA | 0.0862 |
| ATCTTCGA | -0.0159 |

Not a retest: an excerpt of the list.

| Sequence | PBM E-score |
| --- | --- |
| ACTGCTAC | -0.127 |
| AGCCGGCT | 0.36 |
| CTTAGCCC | -0.0355 |
| AGGATCTG | -0.228 |

Following part.

| Sequence | PBM E-score |
| --- | --- |
| GTGCGATA | -0.126 |
| ATGACTTG | -0.0838 |
| ACTATGTA | -0.0696 |
| GCGTGAAA | 0.243 |
| ACTCCAAT | 0.0143 |
| ATGACTGC | -0.101 |
| GAGTGTGC | 0.0695 |
| TCCTCCAA | -0.119 |
| CTGAACTC | -0.197 |
| GCCCACGA | -0.184 |
| AGTGCAAG | 0.0836 |
| AGCGAGTC | -0.175 |
| ATGGCCTC | -0.106 |
| AACCGAGC | 0.323 |
| GAGAATGC | -0.0179 |
| CGGCCGAG | 0.372 |
| CCCCAAGC | 0.0912 |
| ACAACGCC | 0.107 |
| TCAATAGA | -0.0946 |
| CCTAGGGA | -0.0337 |
| GAGCGCCC | -0.233 |
| CACAATTC | 0.111 |
| TACATAAA | 0.0792 |
| CGCTGAAA | 0.0129 |
| AGCTATAT | 0.11 |

| Sequence | PBM E-score |
| --- | --- |
| TCAATTCA | 0.159 |
| GCCTCCTA | -0.251 |
| GGGCGAGA | -0.16 |
| CCCTTCCC | -0.176 |
| CCGCGAGG | 0.117 |
| CTCTTCGA | 0.14 |
| AGTCTCCC | -0.132 |
| AGCGGACG | 0.0647 |
| GGCAGGAA | -0.0191 |
| GTACGGTA | 0.0915 |
| ACCAAGAC | 0.0281 |
| ATCCGAAA | 0.321 |
| TAGCCTAA | -0.119 |
| GTAGGGAC | -0.083 |
| GAGGCGGC | 0.0434 |
| ACTGGTGC | -0.0219 |
| CATATGAG | 0.00741 |
| CAGGAAGC | 0.146 |
| GCGTGCAA | -0.181 |
| AGTGCCAC | -0.15 |
| AAAACCGG | 0.289 |
| AAGCTGGG | -0.103 |
| AGATGTCC | 0.142 |
| GAGTAAAA | -0.0227 |
| ACTAAATG | 0.0476 |

Pulled one by one from the list above:

| Sequence | PBM E-score |
| --- | --- |
| ACTGGTGC | -0.0219 |
| TCAATTCA | 0.159 |
| GAGGCGGC | 0.0434 |

More records follow:

| Sequence | PBM E-score |
| --- | --- |
| GCTGGACA | -0.245 |
| AAAAAACC | 0.052 |
| AGAGCCAA | -0.00696 |
| TGGGACCA | -0.265 |
| CTAAGACC | 0.0272 |
| CTCCATAA | -0.0937 |
| AAGTGCCG | 0.254 |
| CCCTATAC | -0.136 |
| CCCGGTGC | -0.053 |
| ATTGGCGG | 0.0231 |
| ATCGGACA | 0.303 |
| ACCCCAAG | -0.206 |
| CGGAAGCA | 0.332 |
| CGGATTAG | 0.151 |
| TCCGCAAA | 0.153 |
| GCGGCTGA | -0.0974 |
| AACGTCCA | -0.0818 |
| AAGATCTA | -0.0978 |
| GACCTTAC | 0.00308 |
